# According to the supplement of paper PMC4604168 (melanoma cell lines):
# The list shows a part of the results. Single values are uncertain, as repeats are few or missing.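 Imaging used 1,536-well plates; nuclei positive for cleaved PARP by antibody were divided by total DNA-stained nuclei to yield the apoptosis fraction. Doses for screening kept most cells viable, and cell lines differ markedly in resting and induced cleaved-PARP levels.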
# Assays:
# Experiment in all cases: cleaved PARP positive nuclei fraction relative to DMSO control; melanoma cells; higher = more apoptosis
# Conditions in all cases: library dose: low library concentration; 72 h
# [1] = tested on: 501Mel
# [2] = tested on: A101D
# [3] = tested on: A2058
# [4] = tested on: A375
# [5] = tested on: C32
# [6] = tested on: CBRC008 (line from a melanoma biopsy)
# [7] = tested on: CBRC014 (line from a melanoma biopsy)
# [8] = tested on: CBRC016 (line from a melanoma biopsy)
# [9] = tested on: CBRC017 (line from a melanoma biopsy)
# [10] = tested on: CBRC034 (line from a melanoma biopsy)
# [11] = tested on: COLO792
# [12] = tested on: COLO800
# [13] = tested on: COLO829
# [14] = tested on: G361
# [15] = tested on: IPC-298
# [16] = tested on: IST-MEL1
# [17] = tested on: LB2518-MEL
# [18] = tested on: LOXIMVI
# [19] = tested on: MEL-HO
# [20] = tested on: CBRC013 (line from a melanoma biopsy)
Compound,cleaved PARP positive nuclei fraction [1],cleaved PARP positive nuclei fraction [2],cleaved PARP positive nuclei fraction [3],cleaved PARP positive nuclei fraction [4],cleaved PARP positive nuclei fraction [5],cleaved PARP positive nuclei fraction [6],cleaved PARP positive nuclei fraction [7],cleaved PARP positive nuclei fraction [8],cleaved PARP positive nuclei fraction [9],cleaved PARP positive nuclei fraction [10],cleaved PARP positive nuclei fraction [11],cleaved PARP positive nuclei fraction [12],cleaved PARP positive nuclei fraction [13],cleaved PARP positive nuclei fraction [14],cleaved PARP positive nuclei fraction [15],cleaved PARP positive nuclei fraction [16],cleaved PARP positive nuclei fraction [17],cleaved PARP positive nuclei fraction [18],cleaved PARP positive nuclei fraction [19],cleaved PARP positive nuclei fraction [20]
"CC1(C)CCC(c2ccc(Cl)cc2)=C(CN2CCN(c3ccc(C(=O)NS(=O)(=O)c4ccc(N[C@H](CCN5CCOCC5)CSc5ccccc5)c(S(=O)(=O)C(F)(F)F)c4)cc3)CC2)C1 + C[C@@H](N)c1ccc(C(=O)Nc2ccnc3[nH]ccc23)cc1 [RKI983] (first compound 0.4 µM, partner dose 0.4 µM)",62.4%,428%,182%,753%,231%,246%,585%,447%,392%,390%,529%,138%,105%,290%,173%,174%,114%,188%,289%,
"CC(=O)O[C@@]12CO[C@@H]1C[C@H](O)[C@@]1(C)C(=O)[C@H](O)C3=C(C)[C@@H](OC(=O)[C@H](O)[C@@H](NC(=O)OC(C)(C)C)c4ccccc4)C[C@@](O)([C@@H](OC(=O)c4ccccc4)[C@H]21)C3(C)C [Docetaxel] + O=C(CCCCCCC(=O)Nc1ccccc1)NO [vorinostat] (first compound 0.0001 µM, partner dose 0.08 µM)",218%,117%,4980%,6130%,199%,281%,197%,158%,224%,,1230%,637%,160%,1070%,93.9%,319%,128%,128%,58.2%,102%
"CC1(C)CCC(c2ccc(Cl)cc2)=C(CN2CCN(c3ccc(C(=O)NS(=O)(=O)c4ccc(N[C@H](CCN5CCOCC5)CSc5ccccc5)c(S(=O)(=O)C(F)(F)F)c4)cc3)CC2)C1 + Cn1cncc1[C@@](N)(c1ccc(Cl)cc1)c1ccc2c(c1)c(-c1cccc(Cl)c1)cc(=O)n2C [tipifarnib] (first compound 0.4 µM, partner dose 0.01 µM)",95%,184%,136%,2410%,653%,1140%,387%,909%,342%,,262%,19.6%,111%,71.1%,511%,171%,261%,129%,283%,495%
"CCN(CC)CCNC(=O)c1c(C)[nH]c(/C=C2\C(=O)Nc3ccc(F)cc32)c1C [sunitinib] + Cc1cc(N2CCOCC2)cc2[nH]c(-c3c(NC[C@@H](O)c4cccc(Cl)c4)cc[nH]c3=O)nc12 [BMS536924] (first compound 0.4 µM, partner dose 0.2 µM)",292%,88.9%,113%,338%,116%,140%,83.4%,59.8%,76.4%,,118%,179%,75.5%,156%,60.3%,106%,211%,223%,46.7%,253%
"CC1(C)CCC(c2ccc(Cl)cc2)=C(CN2CCN(c3ccc(C(=O)NS(=O)(=O)c4ccc(N[C@H](CCN5CCOCC5)CSc5ccccc5)c(S(=O)(=O)C(F)(F)F)c4)cc3)CC2)C1 + COc1cc2c(Oc3ccc4[nH]c(C)cc4c3F)ncnc2cc1OCCCN1CCCC1 [cediranib] (first compound 0.4 µM, partner dose 0.4 µM)",93%,161%,53.2%,249%,196%,605%,471%,284%,452%,,687%,116%,110%,109%,65.6%,68.2%,106%,111%,93%,104%
"CC1(C)CCC(c2ccc(Cl)cc2)=C(CN2CCN(c3ccc(C(=O)NS(=O)(=O)c4ccc(N[C@H](CCN5CCOCC5)CSc5ccccc5)c(S(=O)(=O)C(F)(F)F)c4)cc3)CC2)C1 + CS(=O)(=O)c1ccc(C(=O)Nc2ccc(Cl)c(-c3ccccn3)c2)c(Cl)c1 [vismodegib] (first compound 0.4 µM, partner dose 1 µM)",177%,95%,180%,739%,244%,925%,333%,277%,271%,89%,215%,280%,111%,128%,84.7%,252%,107%,231%,71.1%,
"CCCCCCCCc1ccc(CCC(N)(CO)CO)cc1 [fingolimod] + CS(=O)(=O)CCNCc1ccc(-c2ccc3ncnc(Nc4ccc(OCc5cccc(F)c5)c(Cl)c4)c3c2)o1 [lapatinib] (first compound 2 µM, partner dose 0.8 µM)",138%,99%,67%,90.6%,249%,160%,100%,39.8%,89.6%,126%,147%,159%,145%,61.2%,58.7%,56.8%,102%,108%,107%,
"Cn1cnc2c(F)c(Nc3ccc(Br)cc3Cl)c(C(=O)NOCCO)cc21 [selumetinib] + C[C@@H]1CCN(C(=O)CC#N)C[C@@H]1N(C)c1ncnc2[nH]ccc12 [CP690550] (first compound 0.015 µM, partner dose 1 µM)",149%,265%,96.4%,154%,48.3%,192%,83.5%,106%,113%,,99.1%,38.6%,71.8%,139%,192%,63.1%,220%,77.3%,99.1%,128%
"CC(=O)O[C@@]12CO[C@@H]1C[C@H](O)[C@@]1(C)C(=O)[C@H](O)C3=C(C)[C@@H](OC(=O)[C@H](O)[C@@H](NC(=O)OC(C)(C)C)c4ccccc4)C[C@@](O)([C@@H](OC(=O)c4ccccc4)[C@H]21)C3(C)C [Docetaxel] + Cc1cc(N2CCOCC2)cc2[nH]c(-c3c(NC[C@@H](O)c4cccc(Cl)c4)cc[nH]c3=O)nc12 [BMS536924] (first compound 0.0001 µM, partner dose 0.2 µM)",349%,58%,6640%,5930%,483%,386%,130%,292%,132%,,608%,308%,262%,758%,69.6%,253%,292%,250%,325%,75%
"C[C@]1(O)C[C@@H](c2nc(-c3ccc4ccc(-c5ccccc5)nc4c3)c3c(N)nccn32)C1 + O=C(O)[C@@H]1[O][Sb](=[O])([O][Sb]2(=[O])[O][C@H]([C@H](O)CO)[C@H](O)[C@H](C(=O)O)[O]2)[O][C@H]([C@H](O)CO)[C@@H]1O [stibogluconate] (first compound 0.4 µM, partner dose 2 µM)",120%,45.5%,53.7%,451%,70%,138%,100%,75.5%,66.3%,46%,63%,60%,73%,109%,60%,62.6%,125%,125%,40.2%,
"CC(=O)O[C@@]12CO[C@@H]1C[C@H](O)[C@@]1(C)C(=O)[C@H](O)C3=C(C)[C@@H](OC(=O)[C@H](O)[C@@H](NC(=O)OC(C)(C)C)c4ccccc4)C[C@@](O)([C@@H](OC(=O)c4ccccc4)[C@H]21)C3(C)C [Docetaxel] + Cc1ccc(NC(=O)c2cccc(N(C)C)c2)cc1NC(=O)c1ccc(O)cc1 [ZM336372] (first compound 0.0001 µM, partner dose 2 µM)",544%,83.8%,2720%,910%,165%,553%,170%,159%,122%,,371%,336%,503%,515%,72.1%,185%,124%,95.1%,112%,136%
"CS(=O)(=O)c1ccc(C(=O)Nc2ccc(Cl)c(-c3ccccn3)c2)c(Cl)c1 [vismodegib] + C=CCn1c(=O)c2cnc(Nc3ccc(N4CCN(C)CC4)cc3)nc2n1-c1cccc(C(C)(C)O)n1 [MK1775] (first compound 1 µM, partner dose 0.02 µM)",83.8%,270%,60.1%,434%,129%,111%,116%,208%,84.7%,,135%,71.5%,66.3%,71.3%,97.9%,50.9%,118%,70.1%,65.5%,130%
"C[C@@H](N)c1ccc(C(=O)Nc2ccnc3[nH]ccc23)cc1 + COc1cc2c(Oc3ccc4[nH]c(C)cc4c3F)ncnc2cc1OCCCN1CCCC1 [cediranib] (first compound 0.4 µM, partner dose 0.4 µM)",38.7%,150%,76.9%,104%,108%,70.5%,88.5%,108%,71.9%,,166%,44%,62.2%,93.9%,119%,31.3%,76.6%,130%,157%,153%
"NC1(c2ccc(-c3nc4ccn5c(=O)[nH]nc5c4cc3-c3ccccc3)cc2)CCC1 + CC1(C)NC(=O)N(c2ccc([N+](=O)[O-])c(C(F)(F)F)c2)C1=O [nilutamide] (first compound 0.4 µM, partner dose 1 µM)",141%,570%,134%,55.6%,101%,64.3%,76.1%,65.1%,81.2%,,178%,107%,68%,76%,174%,74.7%,111%,49.1%,244%,70.4%
"CN(c1ncccc1CNc1nc(Nc2ccc3c(c2)CC(=O)N3)ncc1C(F)(F)F)S(C)(=O)=O + C=C(c1ccc(C(=O)O)cc1)c1cc2c(cc1C)C(C)(C)CCC2(C)C [Bexarotene] (first compound 0.08 µM, partner dose 2 µM)",61%,88.9%,138%,249%,98.4%,110%,105%,50.6%,118%,259%,168%,188%,272%,153%,94.2%,131%,118%,108%,79.6%,
"CN(c1ncccc1CNc1nc(Nc2ccc3c(c2)CC(=O)N3)ncc1C(F)(F)F)S(C)(=O)=O + Clc1ccc(Nc2nnc(Cc3ccncc3)c3ccccc23)cc1 [vatalanib] (first compound 0.08 µM, partner dose 2 µM)",121%,119%,210%,136%,102%,36.3%,120%,161%,91%,189%,153%,64.7%,19.7%,247%,95.9%,122%,327%,115%,72.9%,

# Exported as tab-separated lines: entries from further up
Compound	cleaved PARP positive nuclei fraction [1]	cleaved PARP positive nuclei fraction [2]	cleaved PARP positive nuclei fraction [3]	cleaved PARP positive nuclei fraction [4]	cleaved PARP positive nuclei fraction [5]	cleaved PARP positive nuclei fraction [6]	cleaved PARP positive nuclei fraction [7]	cleaved PARP positive nuclei fraction [8]	cleaved PARP positive nuclei fraction [9]	cleaved PARP positive nuclei fraction [10]	cleaved PARP positive nuclei fraction [11]	cleaved PARP positive nuclei fraction [12]	cleaved PARP positive nuclei fraction [13]	cleaved PARP positive nuclei fraction [14]	cleaved PARP positive nuclei fraction [15]	cleaved PARP positive nuclei fraction [16]	cleaved PARP positive nuclei fraction [17]	cleaved PARP positive nuclei fraction [18]	cleaved PARP positive nuclei fraction [19]	cleaved PARP positive nuclei fraction [20]
CC1(C)CCC(c2ccc(Cl)cc2)=C(CN2CCN(c3ccc(C(=O)NS(=O)(=O)c4ccc(N[C@H](CCN5CCOCC5)CSc5ccccc5)c(S(=O)(=O)C(F)(F)F)c4)cc3)CC2)C1 + C[C@@H](N)c1ccc(C(=O)Nc2ccnc3[nH]ccc23)cc1 [RKI983] (first compound 0.4 µM, partner dose 0.4 µM)	62.4%	428%	182%	753%	231%	246%	585%	447%	392%	390%	529%	138%	105%	290%	173%	174%	114%	188%	289%	
CC(=O)O[C@@]12CO[C@@H]1C[C@H](O)[C@@]1(C)C(=O)[C@H](O)C3=C(C)[C@@H](OC(=O)[C@H](O)[C@@H](NC(=O)OC(C)(C)C)c4ccccc4)C[C@@](O)([C@@H](OC(=O)c4ccccc4)[C@H]21)C3(C)C [Docetaxel] + O=C(CCCCCCC(=O)Nc1ccccc1)NO [vorinostat] (first compound 0.0001 µM, partner dose 0.08 µM)	218%	117%	4980%	6130%	199%	281%	197%	158%	224%		1230%	637%	160%	1070%	93.9%	319%	128%	128%	58.2%	102%
CC1(C)CCC(c2ccc(Cl)cc2)=C(CN2CCN(c3ccc(C(=O)NS(=O)(=O)c4ccc(N[C@H](CCN5CCOCC5)CSc5ccccc5)c(S(=O)(=O)C(F)(F)F)c4)cc3)CC2)C1 + Cn1cncc1[C@@](N)(c1ccc(Cl)cc1)c1ccc2c(c1)c(-c1cccc(Cl)c1)cc(=O)n2C [tipifarnib] (first compound 0.4 µM, partner dose 0.01 µM)	95%	184%	136%	2410%	653%	1140%	387%	909%	342%		262%	19.6%	111%	71.1%	511%	171%	261%	129%	283%	495%
